The other results are listed elsewhere or left out. Residues, ends and D or L forms follow the SMILES beside them. *: point of attachment. Cbz = O=C(OCc1ccccc1)*
Experiments:
Test in all cases: log2 fold change, soluble protein after heating vs DMSO (PISA); higher = thermal stabilisation; K562 cells, 10 uM, 30 min; active = over 0.2 and 3.5 SD of the protein, either way, in both replicates (recomputed)
erlotinib = compound: C#Cc1cccc(Nc2ncnc3cc(OCCOC)c(OCCOC)cc23)c1 [erlotinib]
Outline: (§1)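 Thermal stability values are relative to control samples and come from duplicates. They are expressed as log2 fold changes. For measurement, K562 cells (2×10^6 cells/mL) received 10 μM compound for 30 min, and aliquots were heated for 3 min over 48°C-58°C, pooled, and extracted at 4°C in PBS with 0.5% NP-40. Soluble protein, the supernatant after 21,000xg for 90 min, was quantified by TMTpro 16plex LC-MS/MS with equalised channel sums.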

Amino acid sequences for entries named in this document (tags omitted). A change or cut given only in a name is not applied to a line headed by its entry.
UniProt Q9Y3T6: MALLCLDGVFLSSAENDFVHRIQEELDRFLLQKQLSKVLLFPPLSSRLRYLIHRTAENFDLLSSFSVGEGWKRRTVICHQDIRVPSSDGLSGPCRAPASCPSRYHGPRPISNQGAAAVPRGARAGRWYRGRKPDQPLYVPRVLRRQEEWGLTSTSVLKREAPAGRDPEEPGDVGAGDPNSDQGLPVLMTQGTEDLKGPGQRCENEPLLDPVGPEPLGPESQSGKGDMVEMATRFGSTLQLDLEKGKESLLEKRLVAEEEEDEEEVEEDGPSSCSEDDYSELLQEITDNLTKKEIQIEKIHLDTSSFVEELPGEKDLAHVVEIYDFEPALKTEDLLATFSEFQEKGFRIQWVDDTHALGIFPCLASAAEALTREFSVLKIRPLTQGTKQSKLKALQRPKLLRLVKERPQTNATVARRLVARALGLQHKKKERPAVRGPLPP
UniProt Q9BRQ0: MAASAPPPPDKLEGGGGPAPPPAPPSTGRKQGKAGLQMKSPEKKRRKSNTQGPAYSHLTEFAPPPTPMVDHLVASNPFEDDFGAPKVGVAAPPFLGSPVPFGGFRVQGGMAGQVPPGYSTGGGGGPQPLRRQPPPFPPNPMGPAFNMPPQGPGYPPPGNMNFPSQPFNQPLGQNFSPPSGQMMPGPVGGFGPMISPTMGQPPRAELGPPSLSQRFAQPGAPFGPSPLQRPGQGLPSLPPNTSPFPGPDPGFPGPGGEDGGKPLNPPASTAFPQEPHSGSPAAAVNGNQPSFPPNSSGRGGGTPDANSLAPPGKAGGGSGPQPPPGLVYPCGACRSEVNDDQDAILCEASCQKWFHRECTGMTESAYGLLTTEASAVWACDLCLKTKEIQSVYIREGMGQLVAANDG
UniProt P28062: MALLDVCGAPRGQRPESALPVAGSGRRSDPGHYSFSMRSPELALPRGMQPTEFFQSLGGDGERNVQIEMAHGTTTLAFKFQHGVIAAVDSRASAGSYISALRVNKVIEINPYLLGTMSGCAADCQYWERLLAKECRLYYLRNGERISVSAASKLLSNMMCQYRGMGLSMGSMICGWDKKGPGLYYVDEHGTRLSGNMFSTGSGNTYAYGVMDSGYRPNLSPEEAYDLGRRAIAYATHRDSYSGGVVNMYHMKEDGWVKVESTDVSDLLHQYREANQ
UniProt P28074: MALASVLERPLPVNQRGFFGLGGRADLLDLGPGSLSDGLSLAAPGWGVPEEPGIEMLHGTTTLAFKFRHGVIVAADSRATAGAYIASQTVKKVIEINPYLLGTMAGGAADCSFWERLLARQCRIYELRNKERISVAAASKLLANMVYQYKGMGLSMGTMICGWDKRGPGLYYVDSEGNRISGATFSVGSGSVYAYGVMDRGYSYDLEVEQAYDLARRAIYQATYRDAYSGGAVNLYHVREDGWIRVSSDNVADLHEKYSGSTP
UniProt Q9ULZ3, whole entry, looked up: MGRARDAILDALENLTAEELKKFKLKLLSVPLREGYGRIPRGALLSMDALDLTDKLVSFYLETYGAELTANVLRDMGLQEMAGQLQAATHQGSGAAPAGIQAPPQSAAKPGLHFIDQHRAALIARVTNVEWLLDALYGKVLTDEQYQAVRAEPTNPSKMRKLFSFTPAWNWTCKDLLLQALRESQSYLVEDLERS
UniProt P43115: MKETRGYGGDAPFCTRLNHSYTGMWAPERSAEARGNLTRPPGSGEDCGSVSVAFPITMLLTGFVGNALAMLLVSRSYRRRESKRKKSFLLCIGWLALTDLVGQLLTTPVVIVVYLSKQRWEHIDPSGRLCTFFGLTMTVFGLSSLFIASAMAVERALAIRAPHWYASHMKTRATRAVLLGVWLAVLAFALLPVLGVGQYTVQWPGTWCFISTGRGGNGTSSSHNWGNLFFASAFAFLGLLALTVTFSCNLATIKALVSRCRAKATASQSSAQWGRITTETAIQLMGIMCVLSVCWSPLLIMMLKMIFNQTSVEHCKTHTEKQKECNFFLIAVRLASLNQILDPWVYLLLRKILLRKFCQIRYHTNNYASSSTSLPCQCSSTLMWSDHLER
UniProt Q99952: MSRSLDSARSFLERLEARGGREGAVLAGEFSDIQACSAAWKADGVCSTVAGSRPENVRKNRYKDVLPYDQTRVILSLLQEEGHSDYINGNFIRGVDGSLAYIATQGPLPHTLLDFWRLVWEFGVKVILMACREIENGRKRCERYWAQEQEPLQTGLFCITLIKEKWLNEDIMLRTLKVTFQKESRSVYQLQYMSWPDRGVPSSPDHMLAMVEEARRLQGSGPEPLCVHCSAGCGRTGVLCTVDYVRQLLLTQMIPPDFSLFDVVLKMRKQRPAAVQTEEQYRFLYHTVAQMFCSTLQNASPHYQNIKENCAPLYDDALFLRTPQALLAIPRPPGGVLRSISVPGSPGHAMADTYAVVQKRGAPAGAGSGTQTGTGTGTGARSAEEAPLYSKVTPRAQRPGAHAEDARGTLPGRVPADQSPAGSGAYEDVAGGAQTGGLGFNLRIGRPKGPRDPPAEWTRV
UniProt Q14671: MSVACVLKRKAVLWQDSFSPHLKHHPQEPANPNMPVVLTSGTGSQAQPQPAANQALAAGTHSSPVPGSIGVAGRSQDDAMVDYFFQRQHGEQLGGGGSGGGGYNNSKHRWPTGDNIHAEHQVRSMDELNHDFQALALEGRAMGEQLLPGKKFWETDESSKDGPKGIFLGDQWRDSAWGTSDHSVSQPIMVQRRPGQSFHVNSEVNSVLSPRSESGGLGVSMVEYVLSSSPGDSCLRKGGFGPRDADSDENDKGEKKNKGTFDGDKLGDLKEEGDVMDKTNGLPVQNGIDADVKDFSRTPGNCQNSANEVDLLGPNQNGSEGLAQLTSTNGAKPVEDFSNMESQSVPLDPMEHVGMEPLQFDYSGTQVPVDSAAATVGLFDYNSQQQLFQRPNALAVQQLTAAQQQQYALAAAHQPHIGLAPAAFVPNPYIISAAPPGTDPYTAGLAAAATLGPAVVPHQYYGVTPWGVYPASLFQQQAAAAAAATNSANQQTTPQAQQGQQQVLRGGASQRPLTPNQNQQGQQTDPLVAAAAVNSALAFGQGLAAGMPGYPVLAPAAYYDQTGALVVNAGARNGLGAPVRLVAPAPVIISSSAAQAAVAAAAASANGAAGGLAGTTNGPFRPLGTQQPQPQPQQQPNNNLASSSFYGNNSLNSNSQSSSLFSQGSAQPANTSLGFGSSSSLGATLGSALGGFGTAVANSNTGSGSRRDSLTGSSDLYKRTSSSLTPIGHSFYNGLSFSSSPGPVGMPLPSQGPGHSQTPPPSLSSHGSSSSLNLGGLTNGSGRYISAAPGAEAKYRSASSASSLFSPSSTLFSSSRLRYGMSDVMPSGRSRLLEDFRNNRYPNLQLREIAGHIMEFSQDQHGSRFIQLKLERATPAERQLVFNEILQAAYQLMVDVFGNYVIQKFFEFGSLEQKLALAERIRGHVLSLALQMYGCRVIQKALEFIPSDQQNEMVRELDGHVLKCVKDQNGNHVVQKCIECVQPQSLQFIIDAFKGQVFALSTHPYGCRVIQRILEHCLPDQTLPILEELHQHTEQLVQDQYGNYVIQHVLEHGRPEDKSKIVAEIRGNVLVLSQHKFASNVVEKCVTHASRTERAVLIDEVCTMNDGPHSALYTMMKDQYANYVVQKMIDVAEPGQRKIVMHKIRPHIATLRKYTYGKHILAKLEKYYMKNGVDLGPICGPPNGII
UniProt P15151: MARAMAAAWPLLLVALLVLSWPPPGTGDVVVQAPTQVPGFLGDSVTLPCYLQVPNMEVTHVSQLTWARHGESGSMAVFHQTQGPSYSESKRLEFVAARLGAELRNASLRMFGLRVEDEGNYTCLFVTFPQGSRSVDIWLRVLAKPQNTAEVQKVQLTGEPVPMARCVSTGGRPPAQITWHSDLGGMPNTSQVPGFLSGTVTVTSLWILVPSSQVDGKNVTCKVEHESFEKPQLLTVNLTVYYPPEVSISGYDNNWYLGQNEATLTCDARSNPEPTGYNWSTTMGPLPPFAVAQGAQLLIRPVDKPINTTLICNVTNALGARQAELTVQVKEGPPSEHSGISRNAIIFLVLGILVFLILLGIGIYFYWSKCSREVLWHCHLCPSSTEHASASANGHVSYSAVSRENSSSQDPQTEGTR
UniProt Q9UJV8: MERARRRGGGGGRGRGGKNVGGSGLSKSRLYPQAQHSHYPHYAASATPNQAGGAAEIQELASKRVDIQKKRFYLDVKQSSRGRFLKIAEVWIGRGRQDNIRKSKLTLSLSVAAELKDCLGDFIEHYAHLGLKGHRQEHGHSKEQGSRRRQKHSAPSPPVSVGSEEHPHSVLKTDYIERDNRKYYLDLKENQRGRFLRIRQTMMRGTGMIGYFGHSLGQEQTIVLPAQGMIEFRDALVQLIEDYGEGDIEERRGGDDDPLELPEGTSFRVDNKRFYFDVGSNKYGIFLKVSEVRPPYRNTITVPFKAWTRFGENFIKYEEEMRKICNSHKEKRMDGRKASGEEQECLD
UniProt P40306: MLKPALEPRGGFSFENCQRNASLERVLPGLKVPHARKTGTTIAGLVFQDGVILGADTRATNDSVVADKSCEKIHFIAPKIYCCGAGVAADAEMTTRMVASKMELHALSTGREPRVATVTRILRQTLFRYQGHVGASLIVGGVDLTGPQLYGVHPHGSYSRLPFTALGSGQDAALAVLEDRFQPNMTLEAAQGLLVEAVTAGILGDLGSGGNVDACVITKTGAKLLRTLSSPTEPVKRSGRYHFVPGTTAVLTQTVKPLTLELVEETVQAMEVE

[1] = compound: C/C(=N\NC(=O)C1=CC(=CC=C1)S(=O)(=O)N2CCOCC2)/C3=C(C=CC(=C3)Cl)O
Outline: as §1

[2] = compound: C1=CC(=CC=C1C2=NC3=C(N2)C=C(C=C3)C(=O)N)OC4=CC=C(C=C4)Cl
Outline: as §1

[3] = compound: C1=CC2=C(C=CC(=C2)/C=C\3/C(=O)NC(=NCC4=CC=CS4)S3)N=C1
Outline: as §1

[4] = compound: C1=CC=C(C=C1)C2=NC(=C(N2)C3=CC=NC=C3)C4=CC(=C(C=C4)Cl)O
Outline: as §1

[5] = compound: C1=CC=C2C(=C1)C3=NNC4=CC=CC(=C43)C2=O
Outline: as §1

[6] = compound: C1CCN(C1)C(=O)NC2=CC=CC(=C2)NC3=NC=C(C(=N3)NCCC4=CN=CN4)Br
Outline: as §1

[7] = compound: C1CN(CCC1(CC2=CC=C(C=C2)Cl)N)C3=NC=NC4=C3C=CN4
Outline: as §1

IRAK-1-4 Inhibitor I = compound: C1COCCN1CCN2C3=CC=CC=C3N=C2NC(=O)C4=CC(=CC=C4)[N+](=O)[O-] [IRAK-1-4 Inhibitor I]
Outline: as §1

[8] = compound: CC(=O)c1cnc2ccc(-c3cc(Cl)c(O)c(Cl)c3)nc2c1N[C@H]1CC[C@H](CN(C)C)CC1
Outline: as §1

ralimetinib = compound: CC(C)(C)Cn1c(N)nc2ccc(-c3[nH]c(C(C)(C)C)nc3-c3ccc(F)cc3)nc21 [ralimetinib]
Outline: as §1

[9] = compound: CC(C)C1=C2N=C(C=C(N2N=C1)NCC3=CC=CC=C3)NCCCCCCN
Outline: as §1

[10] = compound: CC(C)C[C@@H](C=O)NC(=O)[C@H](CC(C)C)NC(=O)[C@H](CC(C)C)NC(=O)OCc1ccccc1
Outline: as §1

pinometostat = compound: CC(C)N(C[C@H]1O[C@@H](n2cnc3c(N)ncnc32)[C@H](O)[C@@H]1O)[C@H]1C[C@@H](CCc2nc3cc(C(C)(C)C)ccc3[nH]2)C1 [pinometostat]
Outline: as §1

[11] = compound: CC1=C(C(CC(=O)N1)C2=CC=C(C=C2)C(F)(F)F)C(=O)NC3=C(C=C4C(=C3)C=NN4)F
Outline: as §1

[12] = compound: CC1=C(C2=C(C=C1)C(=O)C3=CC=CC=C3N2CCCN)C
Outline: as §1

[13] = compound: C1=CC(=C(C=C1Cl)C2=NC3=NC=CN=C3C(=N2)NC4=CC=NC=C4)F
Outline: as §1

[14] = compound: C1=CC2=NC=CN=C2C=C1/C=C/3\C(=O)NC(=O)S3
Outline: as §1

ibrutinib = compound: C=CC(=O)N1CCC[C@@H](n2nc(-c3ccc(Oc4ccccc4)cc3)c3c(N)ncnc32)C1 [ibrutinib]
Outline: as §1

[15] = compound: CC(C)(O)CC(=O)NCCn1ccc2ncnc(Nc3ccc(Oc4cccc(C(F)(F)F)c4)c(Cl)c3)c21
Outline: as §1

Measured: log2 fold change

R3HCC1 (UniProt Q9Y3T6)
inactive: erlotinib 0.103 | [1] -0.193 | [2] -0.071 | [3] 0.004 | [4] -0.032 | [5] -0.118 | [6] -0.109 | [7] -0.066 | IRAK-1-4 Inhibitor I -0.028 | [8] 0.063 | ralimetinib -0.378 | [9] -0.106 | [10] 0.132 | pinometostat -0.019 | [11] -0.033 | [12] 0.155

PYGO2 (UniProt Q9BRQ0)
inactive: erlotinib -0.036 | [13] 0.138 | [2] 0.129 | [14] 0.046 | [4] -0.204 | IRAK-1-4 Inhibitor I 0.04 | ibrutinib -0.023 | ralimetinib -0.104 | [15] 0.14 | [9] 0.139 | [10] 0.151 | pinometostat -0.002 | [11] 0.005

PSMB8 (UniProt P28062)
inactive: erlotinib -0.001 | [1] 0.075 | [2] -0.003 | [3] 0.001 | [5] -0.114 | IRAK-1-4 Inhibitor I -0.055 | [8] -0.336 | [9] -0.047 | pinometostat -0.028 | [11] -0.202

PSMD8 (UniProt K7ERW6)
inactive: [6] 0.052 | [7] -0.148 | IRAK-1-4 Inhibitor I 0.018 | pinometostat 0.001 | [12] 0.037

PSMB5 isoform 3 (UniProt P28074)
inactive: [1] -0.287 | [13] -0.153 | [3] 0.172 | [14] 0.045 | [4] -0.12 | [5] -0.218 | [6] 0.225 | [7] 0.204 | ibrutinib -0.058 | [8] -0.154 | ralimetinib -0.205 | [15] -0.194 | [10] 0.34 | [12] 0.144

PYCARD isoform 2 (UniProt Q9ULZ3)
inactive: erlotinib -0.222 | [2] 0.227 | [4] 0.005 | IRAK-1-4 Inhibitor I -0.124 | ralimetinib 0.003 | [9] -0.054 | [10] 0.075 | pinometostat 0.017

PSMB2, A0A087WVV1
inactive: erlotinib 0.335 | [1] 0.071 | [2] 0.028 | [3] -0.089 | [14] 0.042 | [4] 0.02 | [5] 0.072 | IRAK-1-4 Inhibitor I -0.174 | ibrutinib -0.076 | [8] 0.177 | ralimetinib 0.009 | [9] -0.172 | [10] -0.2 | pinometostat -0.175 | [11] 0.176

PTGER3 isoform 2 (UniProt P43115)
inactive: erlotinib 0.063 | [1] -0.055 | [2] 0.24 | [3] 0.162 | [4] -0.011 | [5] 0.315 | IRAK-1-4 Inhibitor I -0.126 | [8] 0.148 | ralimetinib -0.618 | [9] -0.1 | [10] -0.007 | pinometostat 0.396

Fetched one by one from the list above (two):
PYGO2 (UniProt Q9BRQ0)
inactive: erlotinib -0.036 | [13] 0.138 | [2] 0.129 | [14] 0.046 | [4] -0.204 | IRAK-1-4 Inhibitor I 0.04 | ibrutinib -0.023 | ralimetinib -0.104 | [15] 0.14 | [9] 0.139 | [10] 0.151 | pinometostat -0.002 | [11] 0.005

PSMB8 (UniProt P28062)
inactive: erlotinib -0.001 | [1] 0.075 | [2] -0.003 | [3] 0.001 | [5] -0.114 | IRAK-1-4 Inhibitor I -0.055 | [8] -0.336 | [9] -0.047 | pinometostat -0.028 | [11] -0.202

Carrying on.

PSMC1 (UniProt G3V4X1)
inactive: erlotinib 0.149 | [2] -0.001 | [9] -0.089

PTPN18 (UniProt Q99952)
inactive: erlotinib -0.087 | [2] -0.037 | [4] 0.064 | IRAK-1-4 Inhibitor I -0.23 | ralimetinib 0.144 | [9] 0.072 | [10] -0.135 | pinometostat 0.004 | [11] 0.118

PUM1 (UniProt Q14671)
inactive: erlotinib 0.308 | [1] 0.035 | [2] 0.15 | [3] -0.034 | [5] 0.051 | [6] -0.045 | [7] -0.024 | IRAK-1-4 Inhibitor I 0.101 | [8] -0.038 | [9] -0.226 | pinometostat 0.073 | [12] 0.139

PVR (UniProt P15151)
inactive: [1] 0.123 | [13] 0.054 | [3] -0.034 | [14] 0.055 | [5] -0.074 | [6] -0.052 | [7] 0.036 | ibrutinib 0.048 | [8] -0.088 | [15] 0.047 | [12] 0.011

PURG (UniProt Q9UJV8)
inactive: [13] -0.514 | [15] 0.483 | [11] -0.053

PSMB10 (UniProt P40306)
inactive: [1] -0.093 | [3] 0.212 | [5] -0.023 | [8] -0.233 | [11] -0.028
